Results are given in words; binding and its absence hold for the method and conditions named. Binding seen in cells or lysates may run through a third protein. Some binding calls cover weakened binding; strength is not graded here.
Legend:
[1] = target: Twist1 (human (endogenous in HUVEC)) (UniProt Q15672); test: co-IP; 200 ug protein of HUVEC lysate incubated with 5 ug anti-Twist1 antibody at 4 °C overnight, protein A/G agarose beads 4 h, washed with PBS; blot for p300/CBP; cells under normoxia or hypoxia (1% O2, 48 h), with or without 10 mM lactate, with or without the MCT inhibitor CHC
[2] = target: CBP (human (endogenous in HUVEC)) (UniProt Q92793); test: co-IP; HUVEC lysate precipitated with anti-p300 or anti-CBP antibody, protein A/G agarose beads; blot for Twist1; cells under hypoxia, with or without 10 mM lactate, with or without the MCT inhibitor CHC
[3] = target: p300 (human (endogenous in HUVEC)) (UniProt Q09472); test: as above

Amino acid sequences for entries named in this document (tags omitted).
UniProt Q15672: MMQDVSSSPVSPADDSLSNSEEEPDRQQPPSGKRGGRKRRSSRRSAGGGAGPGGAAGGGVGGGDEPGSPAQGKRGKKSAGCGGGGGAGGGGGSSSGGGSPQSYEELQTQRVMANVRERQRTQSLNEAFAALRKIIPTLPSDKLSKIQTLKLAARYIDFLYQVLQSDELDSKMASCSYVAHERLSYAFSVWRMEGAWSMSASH
UniProt Q92793: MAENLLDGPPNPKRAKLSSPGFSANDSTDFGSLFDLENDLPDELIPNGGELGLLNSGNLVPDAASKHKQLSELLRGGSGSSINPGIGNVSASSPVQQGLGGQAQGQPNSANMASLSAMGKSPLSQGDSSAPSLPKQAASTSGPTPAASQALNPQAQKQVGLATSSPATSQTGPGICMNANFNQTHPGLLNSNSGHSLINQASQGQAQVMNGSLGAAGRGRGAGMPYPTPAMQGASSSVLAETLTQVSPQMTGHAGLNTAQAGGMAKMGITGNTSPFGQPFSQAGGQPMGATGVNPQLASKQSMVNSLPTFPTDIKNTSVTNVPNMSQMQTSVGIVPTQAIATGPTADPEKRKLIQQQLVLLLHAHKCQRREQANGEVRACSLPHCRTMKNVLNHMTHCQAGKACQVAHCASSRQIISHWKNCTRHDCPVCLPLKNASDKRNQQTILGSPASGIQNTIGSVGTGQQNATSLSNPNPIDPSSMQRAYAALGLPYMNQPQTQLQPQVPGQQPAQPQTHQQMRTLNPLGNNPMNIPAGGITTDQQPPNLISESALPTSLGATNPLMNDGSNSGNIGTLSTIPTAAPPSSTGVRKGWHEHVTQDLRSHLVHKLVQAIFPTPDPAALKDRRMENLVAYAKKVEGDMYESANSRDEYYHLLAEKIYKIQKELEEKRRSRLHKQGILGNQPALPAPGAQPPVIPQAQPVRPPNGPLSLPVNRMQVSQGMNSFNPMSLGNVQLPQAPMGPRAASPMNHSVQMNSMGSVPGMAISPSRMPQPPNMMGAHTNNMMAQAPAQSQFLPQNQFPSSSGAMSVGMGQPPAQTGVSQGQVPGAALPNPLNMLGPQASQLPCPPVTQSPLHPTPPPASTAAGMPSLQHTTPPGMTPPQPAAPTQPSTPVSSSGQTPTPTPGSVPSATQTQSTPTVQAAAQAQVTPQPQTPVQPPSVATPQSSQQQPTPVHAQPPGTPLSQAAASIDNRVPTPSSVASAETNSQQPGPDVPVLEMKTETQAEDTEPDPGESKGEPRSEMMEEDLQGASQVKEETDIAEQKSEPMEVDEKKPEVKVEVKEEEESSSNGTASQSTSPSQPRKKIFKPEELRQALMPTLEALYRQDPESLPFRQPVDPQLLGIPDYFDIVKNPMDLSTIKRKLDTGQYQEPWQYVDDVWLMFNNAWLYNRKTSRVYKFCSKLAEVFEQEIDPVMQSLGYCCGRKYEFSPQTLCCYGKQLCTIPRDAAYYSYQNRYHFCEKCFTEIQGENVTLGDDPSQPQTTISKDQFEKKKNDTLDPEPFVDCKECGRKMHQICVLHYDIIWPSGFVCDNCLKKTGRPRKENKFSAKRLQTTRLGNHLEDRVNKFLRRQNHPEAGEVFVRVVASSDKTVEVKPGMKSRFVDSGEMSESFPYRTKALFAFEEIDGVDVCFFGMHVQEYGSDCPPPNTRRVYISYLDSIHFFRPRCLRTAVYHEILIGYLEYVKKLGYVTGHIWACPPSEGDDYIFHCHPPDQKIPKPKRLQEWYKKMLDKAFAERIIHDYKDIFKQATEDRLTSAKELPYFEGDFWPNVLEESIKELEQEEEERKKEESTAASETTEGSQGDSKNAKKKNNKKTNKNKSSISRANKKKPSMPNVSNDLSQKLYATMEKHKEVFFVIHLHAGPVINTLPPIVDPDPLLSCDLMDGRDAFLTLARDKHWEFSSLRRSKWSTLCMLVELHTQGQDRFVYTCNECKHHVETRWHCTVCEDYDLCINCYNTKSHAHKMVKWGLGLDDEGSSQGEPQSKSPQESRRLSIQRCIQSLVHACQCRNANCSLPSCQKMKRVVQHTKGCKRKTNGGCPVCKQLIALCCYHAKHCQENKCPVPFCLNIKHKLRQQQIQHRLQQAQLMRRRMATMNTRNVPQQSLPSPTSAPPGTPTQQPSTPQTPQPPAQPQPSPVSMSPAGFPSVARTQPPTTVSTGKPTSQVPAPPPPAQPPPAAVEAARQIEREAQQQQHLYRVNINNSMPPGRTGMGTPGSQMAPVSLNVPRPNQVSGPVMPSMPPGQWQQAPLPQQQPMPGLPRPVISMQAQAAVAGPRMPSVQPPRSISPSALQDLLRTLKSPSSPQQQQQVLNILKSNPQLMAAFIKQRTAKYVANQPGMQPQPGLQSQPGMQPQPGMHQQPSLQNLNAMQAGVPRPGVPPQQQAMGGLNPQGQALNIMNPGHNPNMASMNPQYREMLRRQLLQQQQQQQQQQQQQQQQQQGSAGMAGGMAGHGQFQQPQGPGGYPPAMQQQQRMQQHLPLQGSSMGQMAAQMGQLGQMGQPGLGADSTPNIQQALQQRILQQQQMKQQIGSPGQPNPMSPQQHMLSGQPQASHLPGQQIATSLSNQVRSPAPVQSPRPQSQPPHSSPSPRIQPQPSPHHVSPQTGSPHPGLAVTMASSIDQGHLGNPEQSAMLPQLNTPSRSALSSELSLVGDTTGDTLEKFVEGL
UniProt Q09472: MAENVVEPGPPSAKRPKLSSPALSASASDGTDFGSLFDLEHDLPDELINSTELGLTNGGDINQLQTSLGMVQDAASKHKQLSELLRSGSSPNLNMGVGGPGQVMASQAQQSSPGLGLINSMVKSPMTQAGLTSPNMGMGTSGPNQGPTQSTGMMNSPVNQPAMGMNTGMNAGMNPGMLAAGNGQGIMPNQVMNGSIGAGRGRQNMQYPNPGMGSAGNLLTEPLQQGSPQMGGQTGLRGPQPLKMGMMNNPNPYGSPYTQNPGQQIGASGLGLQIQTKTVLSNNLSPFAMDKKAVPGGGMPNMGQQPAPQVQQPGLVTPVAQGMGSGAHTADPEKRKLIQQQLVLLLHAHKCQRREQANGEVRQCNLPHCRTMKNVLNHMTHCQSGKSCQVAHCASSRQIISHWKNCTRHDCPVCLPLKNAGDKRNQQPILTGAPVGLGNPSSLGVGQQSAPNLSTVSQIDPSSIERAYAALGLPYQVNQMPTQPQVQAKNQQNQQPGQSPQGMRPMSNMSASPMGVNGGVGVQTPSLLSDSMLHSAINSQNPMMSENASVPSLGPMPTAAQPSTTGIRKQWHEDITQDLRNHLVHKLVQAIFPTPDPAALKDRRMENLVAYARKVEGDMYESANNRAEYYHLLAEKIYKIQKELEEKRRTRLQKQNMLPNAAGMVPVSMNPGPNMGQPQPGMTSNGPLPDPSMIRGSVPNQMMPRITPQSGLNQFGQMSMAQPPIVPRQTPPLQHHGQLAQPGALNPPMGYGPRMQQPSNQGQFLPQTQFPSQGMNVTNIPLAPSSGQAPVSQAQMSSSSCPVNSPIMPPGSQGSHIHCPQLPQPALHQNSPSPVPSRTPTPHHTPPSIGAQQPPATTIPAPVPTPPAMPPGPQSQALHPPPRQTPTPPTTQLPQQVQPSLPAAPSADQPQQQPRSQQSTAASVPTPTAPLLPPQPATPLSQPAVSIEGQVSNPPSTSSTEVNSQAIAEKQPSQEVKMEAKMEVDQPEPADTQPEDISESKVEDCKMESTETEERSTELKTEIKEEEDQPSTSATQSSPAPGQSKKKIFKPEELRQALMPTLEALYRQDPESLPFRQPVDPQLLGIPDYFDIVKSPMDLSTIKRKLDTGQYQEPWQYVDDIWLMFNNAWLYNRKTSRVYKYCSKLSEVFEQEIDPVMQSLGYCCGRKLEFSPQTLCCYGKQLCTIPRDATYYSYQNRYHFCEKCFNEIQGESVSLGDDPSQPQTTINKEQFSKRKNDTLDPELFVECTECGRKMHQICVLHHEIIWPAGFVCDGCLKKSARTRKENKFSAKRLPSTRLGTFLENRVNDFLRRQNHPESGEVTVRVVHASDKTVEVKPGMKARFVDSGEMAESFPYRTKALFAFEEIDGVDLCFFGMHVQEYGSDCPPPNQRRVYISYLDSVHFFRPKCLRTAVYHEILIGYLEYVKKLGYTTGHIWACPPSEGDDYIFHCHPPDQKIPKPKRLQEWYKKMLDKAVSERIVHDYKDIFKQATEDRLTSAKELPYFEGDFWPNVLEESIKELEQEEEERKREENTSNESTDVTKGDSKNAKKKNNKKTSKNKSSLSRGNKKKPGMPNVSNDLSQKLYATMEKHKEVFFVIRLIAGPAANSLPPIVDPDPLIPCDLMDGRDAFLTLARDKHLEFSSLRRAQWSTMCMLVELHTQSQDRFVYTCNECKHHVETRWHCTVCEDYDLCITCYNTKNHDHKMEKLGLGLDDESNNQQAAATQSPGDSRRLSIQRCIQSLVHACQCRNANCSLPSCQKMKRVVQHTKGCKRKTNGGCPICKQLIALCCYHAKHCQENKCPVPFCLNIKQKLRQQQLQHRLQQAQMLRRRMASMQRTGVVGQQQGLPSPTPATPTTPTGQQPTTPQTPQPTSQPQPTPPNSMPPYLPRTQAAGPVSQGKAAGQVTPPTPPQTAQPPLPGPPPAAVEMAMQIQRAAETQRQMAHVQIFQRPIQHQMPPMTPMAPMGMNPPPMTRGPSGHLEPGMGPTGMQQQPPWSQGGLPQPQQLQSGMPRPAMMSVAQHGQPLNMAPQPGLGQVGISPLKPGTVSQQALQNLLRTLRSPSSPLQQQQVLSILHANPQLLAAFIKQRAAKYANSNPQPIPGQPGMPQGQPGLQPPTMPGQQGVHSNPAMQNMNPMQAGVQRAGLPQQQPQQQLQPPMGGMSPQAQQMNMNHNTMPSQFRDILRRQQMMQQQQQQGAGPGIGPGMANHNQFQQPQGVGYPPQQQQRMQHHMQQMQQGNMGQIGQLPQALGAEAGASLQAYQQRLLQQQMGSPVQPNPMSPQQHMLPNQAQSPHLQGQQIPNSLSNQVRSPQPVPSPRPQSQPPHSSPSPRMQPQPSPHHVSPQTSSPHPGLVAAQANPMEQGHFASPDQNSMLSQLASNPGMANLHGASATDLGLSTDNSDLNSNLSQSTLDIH

Row | binding [1] | binding [2] | binding [3] | Substance
1 | binds | – | – | p300 (from UniProt Q09472 1-2414)
2 | binds | – | – | CBP (from UniProt Q92793 1-2442)
3 | – | binds | binds | Twist1 (from UniProt Q15672 1-202)

Source: article PMC11653614
